Results are given in words; binding and its absence hold for the method and conditions named. In cells and extracts the contact can be indirect. These calls come from enrichment with a bait or labelling near it, and not all partners need be listed. A no says only that the protein was not detected with the bait. For some of these results: Sequences can lack the tags named with a protein.
Tests used:
[1] = biological target: T1, TRAP1 double point mutant E115A/R402A with C-terminal HA tag (human) (UniProt Q12931); test: affinity purification with mass spectrometry
T1 sequence: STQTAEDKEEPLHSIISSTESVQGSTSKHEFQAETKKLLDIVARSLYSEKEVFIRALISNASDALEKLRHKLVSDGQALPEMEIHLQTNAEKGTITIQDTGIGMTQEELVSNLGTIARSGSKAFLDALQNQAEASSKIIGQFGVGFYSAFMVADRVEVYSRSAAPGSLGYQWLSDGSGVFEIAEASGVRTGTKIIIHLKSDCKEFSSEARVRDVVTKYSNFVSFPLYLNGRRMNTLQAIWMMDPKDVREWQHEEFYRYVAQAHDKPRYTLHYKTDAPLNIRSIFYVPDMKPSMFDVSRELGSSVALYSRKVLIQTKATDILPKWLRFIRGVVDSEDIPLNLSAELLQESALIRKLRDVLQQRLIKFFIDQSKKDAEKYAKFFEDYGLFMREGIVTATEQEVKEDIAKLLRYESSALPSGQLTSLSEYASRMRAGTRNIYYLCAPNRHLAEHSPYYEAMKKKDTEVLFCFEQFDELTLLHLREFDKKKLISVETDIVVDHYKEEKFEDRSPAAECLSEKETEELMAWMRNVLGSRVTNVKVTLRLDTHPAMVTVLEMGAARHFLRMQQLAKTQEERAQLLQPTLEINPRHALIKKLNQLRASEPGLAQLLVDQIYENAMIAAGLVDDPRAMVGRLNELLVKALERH

Chains of the proteins cited; added tags and fusions are not shown. Residues count along the entry.
UniProt P40939, residues 37-763: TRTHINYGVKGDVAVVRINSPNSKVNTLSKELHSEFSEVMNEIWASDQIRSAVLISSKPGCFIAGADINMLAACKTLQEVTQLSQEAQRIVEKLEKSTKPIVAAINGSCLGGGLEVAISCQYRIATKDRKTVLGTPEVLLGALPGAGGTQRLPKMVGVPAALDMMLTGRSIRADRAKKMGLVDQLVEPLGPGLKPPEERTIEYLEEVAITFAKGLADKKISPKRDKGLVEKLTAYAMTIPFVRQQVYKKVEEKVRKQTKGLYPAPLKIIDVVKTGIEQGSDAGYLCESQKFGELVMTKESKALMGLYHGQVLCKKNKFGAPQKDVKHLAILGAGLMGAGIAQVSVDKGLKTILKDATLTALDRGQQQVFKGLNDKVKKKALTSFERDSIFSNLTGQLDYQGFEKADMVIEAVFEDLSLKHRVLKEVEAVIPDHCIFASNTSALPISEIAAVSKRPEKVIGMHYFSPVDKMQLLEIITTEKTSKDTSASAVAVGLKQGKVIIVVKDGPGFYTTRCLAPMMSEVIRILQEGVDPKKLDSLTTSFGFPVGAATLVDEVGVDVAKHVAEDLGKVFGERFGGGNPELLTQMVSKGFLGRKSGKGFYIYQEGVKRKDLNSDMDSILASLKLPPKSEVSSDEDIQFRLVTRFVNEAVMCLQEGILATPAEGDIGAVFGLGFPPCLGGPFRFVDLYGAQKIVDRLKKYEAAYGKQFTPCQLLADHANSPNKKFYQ
UniProt P30405, residues 30-207: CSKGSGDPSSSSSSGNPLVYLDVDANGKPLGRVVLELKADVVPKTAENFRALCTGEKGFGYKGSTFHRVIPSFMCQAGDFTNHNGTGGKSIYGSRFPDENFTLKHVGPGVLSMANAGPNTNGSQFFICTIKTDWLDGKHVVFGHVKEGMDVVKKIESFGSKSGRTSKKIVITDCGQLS
UniProt P15104: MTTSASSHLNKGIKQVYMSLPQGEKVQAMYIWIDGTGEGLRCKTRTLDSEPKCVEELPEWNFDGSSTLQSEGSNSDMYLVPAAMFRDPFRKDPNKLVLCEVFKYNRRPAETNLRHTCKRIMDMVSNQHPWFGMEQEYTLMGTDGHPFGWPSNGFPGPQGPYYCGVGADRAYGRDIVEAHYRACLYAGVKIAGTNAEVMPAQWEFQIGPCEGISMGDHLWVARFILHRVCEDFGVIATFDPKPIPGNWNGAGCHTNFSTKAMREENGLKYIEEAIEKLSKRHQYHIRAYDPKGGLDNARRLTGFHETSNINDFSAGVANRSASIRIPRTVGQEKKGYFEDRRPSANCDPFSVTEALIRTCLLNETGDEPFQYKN
UniProt P10809, residues 27-573: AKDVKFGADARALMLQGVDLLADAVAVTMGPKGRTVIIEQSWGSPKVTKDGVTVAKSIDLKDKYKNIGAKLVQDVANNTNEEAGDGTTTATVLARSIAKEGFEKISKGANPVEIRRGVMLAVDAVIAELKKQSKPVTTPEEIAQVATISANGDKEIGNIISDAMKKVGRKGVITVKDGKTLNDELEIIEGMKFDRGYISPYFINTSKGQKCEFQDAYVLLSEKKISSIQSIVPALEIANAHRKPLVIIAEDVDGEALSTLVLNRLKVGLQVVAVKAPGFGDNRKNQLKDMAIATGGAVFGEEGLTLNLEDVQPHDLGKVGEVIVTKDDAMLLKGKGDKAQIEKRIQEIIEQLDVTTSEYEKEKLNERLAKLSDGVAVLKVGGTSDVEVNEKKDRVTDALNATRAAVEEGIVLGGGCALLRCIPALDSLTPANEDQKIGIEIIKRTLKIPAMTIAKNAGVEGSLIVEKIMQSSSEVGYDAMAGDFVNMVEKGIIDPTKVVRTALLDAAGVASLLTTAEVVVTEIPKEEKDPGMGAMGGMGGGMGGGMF
UniProt Q9BXM7, residues 78-581: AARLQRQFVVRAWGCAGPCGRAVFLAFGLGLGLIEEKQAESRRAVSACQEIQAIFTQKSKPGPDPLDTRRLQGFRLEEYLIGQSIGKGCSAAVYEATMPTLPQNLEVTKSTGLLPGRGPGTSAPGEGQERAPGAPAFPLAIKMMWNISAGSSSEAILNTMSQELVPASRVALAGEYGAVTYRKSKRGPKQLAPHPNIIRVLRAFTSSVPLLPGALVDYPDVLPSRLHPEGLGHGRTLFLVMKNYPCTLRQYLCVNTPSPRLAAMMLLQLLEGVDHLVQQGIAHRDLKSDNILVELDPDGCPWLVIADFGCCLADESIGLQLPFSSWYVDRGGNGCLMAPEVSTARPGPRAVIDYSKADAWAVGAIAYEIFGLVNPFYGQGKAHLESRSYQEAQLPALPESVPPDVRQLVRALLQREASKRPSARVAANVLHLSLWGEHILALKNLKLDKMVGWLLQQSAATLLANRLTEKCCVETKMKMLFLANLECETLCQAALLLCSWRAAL
UniProt P31040, residues 43-664: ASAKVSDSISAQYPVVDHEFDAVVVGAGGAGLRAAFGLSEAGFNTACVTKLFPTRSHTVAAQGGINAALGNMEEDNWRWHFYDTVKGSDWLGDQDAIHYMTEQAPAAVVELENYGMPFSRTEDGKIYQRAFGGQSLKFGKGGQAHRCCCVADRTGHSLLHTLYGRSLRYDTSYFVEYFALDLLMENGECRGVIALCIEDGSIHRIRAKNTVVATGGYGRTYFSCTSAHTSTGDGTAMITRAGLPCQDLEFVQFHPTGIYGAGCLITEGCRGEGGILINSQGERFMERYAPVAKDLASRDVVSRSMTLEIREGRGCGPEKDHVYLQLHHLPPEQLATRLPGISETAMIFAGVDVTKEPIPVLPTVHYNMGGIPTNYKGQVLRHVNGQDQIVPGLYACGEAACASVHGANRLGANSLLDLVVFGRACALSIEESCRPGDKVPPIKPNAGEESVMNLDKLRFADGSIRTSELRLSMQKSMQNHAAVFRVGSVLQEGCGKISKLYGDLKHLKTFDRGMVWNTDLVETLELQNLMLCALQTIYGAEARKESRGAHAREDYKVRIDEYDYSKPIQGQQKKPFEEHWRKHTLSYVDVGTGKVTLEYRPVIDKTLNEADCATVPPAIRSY

[2] = biological target: WT TRAP1 with C-terminal HA tag (pcDNA3.1 (+) MTS-HA vector) (human) (UniProt Q12931); test: affinity purification with mass spectrometry

Substance	binding [1]	binding [2]
ECHA (from UniProt P40939 37-763) (enzyme)	binds	binds
cyclophilin D (from UniProt P30405 30-207)	no binding	
glutaminase (human (endogenous in HEK293T)) (enzyme)	no binding	
glutamine synthase (from UniProt P15104 1-373) (enzyme)	no binding	no binding

The remaining lines, values ahead:

binding [1]	binding [2]	Substance
binds		CH60 (HSP60) (from UniProt P10809 27-573)
no binding		PINK1 (from UniProt Q9BXM7 78-581)
	binds	SDHA (from UniProt P31040 43-664)
no binding		glutamate dehydrogenase (human (endogenous in HEK293T)) (enzyme)

From publication doi:10.1101/679431
